Measured values: article PMC12446476 (Nature Communications, 2025)
This continues a long series; more values of the same kind are listed elsewhere.

System: N. gonorrhoeae
Assay: In vitro time-kill assay
Type: cell-based, Neisseria gonorrhoeae
Text: The 2024 WHO N. gonorrhoeae reference strains were used for quality control. Only whole MIC doubling dilutions are reported. Clinical breakpoints or the epidemiological cutoff (ECOFF, to indicate azithromycin resistance) from EUCAST (v14.0, https://www.eucast.org/clinical_breakpoints) were used to classify isolates as antimicrobial susceptible or resistant. […] Two times the standard inoculum defined by CLSI was used to establish consistent growth in untreated control samples for some strains. In vitro time-kill assays were performed according to CLSI guidelines[65] using Columbia Broth (BD Difco) supplemented with 1% IsoVitaleX Enrichment (BD). Viable bacterial counts were generated by plating 10-fold serially diluted samples on GC agar plates containing 1% IsoVitaleX Enrichment (BD).

Structure (SMILES): Cc1c(CN(C)C(=O)/C=C/c2cnc3c(c2)N[C@H](C)[C@H](O)C(=O)N3)oc2ccccc12 [Debio 1453]
- Log10CFU/ml (time kill) (6926, 2X MIC, 0 hr): 6.26 Log10CFU/ml
- Log10CFU/ml (time kill) (6926, 2X MIC, 1 hr): 5.62 Log10CFU/ml
- Log10CFU/ml (time kill) (6926, 2X MIC, 3 hr): 5.57 Log10CFU/ml
- Log10CFU/ml (time kill) (6926, 2X MIC, 6 hr): 4.99 Log10CFU/ml
- Log10CFU/ml (time kill) (6926, 2X MIC, 10 hr): 4.11 Log10CFU/ml
- Log10CFU/ml (time kill) (6926, 2X MIC, 24 hr): 1.95 Log10CFU/ml
- Log10CFU/ml (time kill) (6926, 4X MIC, 0 hr): 6.24 Log10CFU/ml
- Log10CFU/ml (time kill) (6926, 4X MIC, 1 hr): 5.83 Log10CFU/ml
- Log10CFU/ml (time kill) (6926, 4X MIC, 3 hr): 5.05 Log10CFU/ml
- Log10CFU/ml (time kill) (6926, 4X MIC, 6 hr): 4.86 Log10CFU/ml
- Log10CFU/ml (time kill) (6926, 4X MIC, 10 hr): 3.72 Log10CFU/ml
- Log10CFU/ml (time kill) (6926, 4X MIC, 24 hr): 1.95 Log10CFU/ml
- Log10CFU/ml (time kill) (6926, 8X MIC, 0 hr): 6.17 Log10CFU/ml
- Log10CFU/ml (time kill) (6926, 8X MIC, 1 hr): 5.80 Log10CFU/ml
- Log10CFU/ml (time kill) (6926, 8X MIC, 3 hr): 5.08 Log10CFU/ml
- Log10CFU/ml (time kill) (6926, 8X MIC, 6 hr): 4.62 Log10CFU/ml
- Log10CFU/ml (time kill) (6926, 8X MIC, 10 hr): 3.04 Log10CFU/ml
- Log10CFU/ml (time kill) (6926, 8X MIC, 24 hr): 1.95 Log10CFU/ml
- Log10CFU/ml (time kill) (6926, 16X MIC, 0 hr): 6.16 Log10CFU/ml
- Log10CFU/ml (time kill) (6926, 16X MIC, 1 hr): 6.03 Log10CFU/ml
- Log10CFU/ml (time kill) (6926, 16X MIC, 3 hr): 5.23 Log10CFU/ml
- Log10CFU/ml (time kill) (6926, 16X MIC, 6 hr): 4.89 Log10CFU/ml
- Log10CFU/ml (time kill) (6926, 16X MIC, 10 hr): 1.95 Log10CFU/ml
- Log10CFU/ml (time kill) (6926, 16X MIC, 24 hr): 1.95 Log10CFU/ml
- Log10CFU/ml (time kill) (ATCC 49226, 4X MIC, 1 hr): 5.93 Log10CFU/ml
- Log10CFU/ml (time kill) (ATCC 49226, 4X MIC, 3 hr): 5.41 Log10CFU/ml
- Log10CFU/ml (time kill) (ATCC 49226, 4X MIC, 6 hr): 3.96 Log10CFU/ml
- Log10CFU/ml (time kill) (ATCC 49226, 4X MIC, 10 hr): 2.30 Log10CFU/ml
- Log10CFU/ml (time kill) (ATCC 49226, 4X MIC, 24 hr): 1.95 Log10CFU/ml
- Log10CFU/ml (time kill) (ATCC 49226, 8X MIC, 0 hr): 5.95 Log10CFU/ml
- Log10CFU/ml (time kill) (ATCC 49226, 8X MIC, 1 hr): 5.82 Log10CFU/ml
- Log10CFU/ml (time kill) (ATCC 49226, 8X MIC, 3 hr): 5.40 Log10CFU/ml
- Log10CFU/ml (time kill) (ATCC 49226, 8X MIC, 6 hr): 3.45 Log10CFU/ml
- Log10CFU/ml (time kill) (ATCC 49226, 8X MIC, 10 hr): 1.95 Log10CFU/ml
- Log10CFU/ml (time kill) (ATCC 49226, 8X MIC, 24 hr): 1.95 Log10CFU/ml
- Log10CFU/ml (time kill) (ATCC 49226, 16X MIC, 0 hr): 5.97 Log10CFU/ml
- Log10CFU/ml (time kill) (ATCC 49226, 16X MIC, 1 hr): 5.96 Log10CFU/ml
- Log10CFU/ml (time kill) (ATCC 49226, 16X MIC, 3 hr): 5.72 Log10CFU/ml
- Log10CFU/ml (time kill) (ATCC 49226, 16X MIC, 6 hr): 3.18 Log10CFU/ml
- Log10CFU/ml (time kill) (ATCC 49226, 16X MIC, 10 hr): 1.95 Log10CFU/ml
- Log10CFU/ml (time kill) (ATCC 49226, 16X MIC, 24 hr): 1.95 Log10CFU/ml
- Log10CFU/ml (time kill) (ATCC 700825, 2X MIC, 0 hr): 6.51 Log10CFU/ml
- Log10CFU/ml (time kill) (ATCC 700825, 2X MIC, 1 hr): 6.40 Log10CFU/ml
- Log10CFU/ml (time kill) (ATCC 700825, 2X MIC, 3 hr): 6.03 Log10CFU/ml
- Log10CFU/ml (time kill) (ATCC 700825, 2X MIC, 6 hr): 4.87 Log10CFU/ml
- Log10CFU/ml (time kill) (ATCC 700825, 2X MIC, 10 hr): 2.60 Log10CFU/ml
- Log10CFU/ml (time kill) (ATCC 700825, 2X MIC, 24 hr): 1.95 Log10CFU/ml
- Log10CFU/ml (time kill) (ATCC 700825, 4X MIC, 0 hr): 6.40 Log10CFU/ml
- Log10CFU/ml (time kill) (ATCC 700825, 4X MIC, 1 hr): 6.29 Log10CFU/ml
- Log10CFU/ml (time kill) (ATCC 700825, 4X MIC, 3 hr): 5.90 Log10CFU/ml
- Log10CFU/ml (time kill) (ATCC 700825, 4X MIC, 6 hr): 4.82 Log10CFU/ml
- Log10CFU/ml (time kill) (ATCC 700825, 4X MIC, 10 hr): 2.60 Log10CFU/ml
- Log10CFU/ml (time kill) (ATCC 700825, 4X MIC, 24 hr): 1.95 Log10CFU/ml
- Log10CFU/ml (time kill) (ATCC 700825, 8X MIC, 0 hr): 6.42 Log10CFU/ml
- Log10CFU/ml (time kill) (ATCC 700825, 8X MIC, 1 hr): 6.27 Log10CFU/ml
- Log10CFU/ml (time kill) (ATCC 700825, 8X MIC, 3 hr): 5.83 Log10CFU/ml
- Log10CFU/ml (time kill) (ATCC 700825, 8X MIC, 6 hr): 4.99 Log10CFU/ml
- Log10CFU/ml (time kill) (ATCC 700825, 8X MIC, 10 hr): 2.48 Log10CFU/ml
- Log10CFU/ml (time kill) (ATCC 700825, 8X MIC, 24 hr): 1.95 Log10CFU/ml
- Log10CFU/ml (time kill) (ATCC 700825, 16X MIC, 0 hr): 6.44 Log10CFU/ml
- Log10CFU/ml (time kill) (ATCC 700825, 16X MIC, 1 hr): 6.23 Log10CFU/ml
- Log10CFU/ml (time kill) (ATCC 700825, 16X MIC, 3 hr): 5.67 Log10CFU/ml
- Log10CFU/ml (time kill) (ATCC 700825, 16X MIC, 6 hr): 4.88 Log10CFU/ml
- Log10CFU/ml (time kill) (ATCC 700825, 16X MIC, 10 hr): 2.90 Log10CFU/ml
- Log10CFU/ml (time kill) (ATCC 700825, 16X MIC, 24 hr): 1.95 Log10CFU/ml
- Log10CFU/ml (time kill) (WHO V, 16X MIC, 6 hr): 4.09 Log10CFU/ml
- Log10CFU/ml (time kill) (WHO V, 16X MIC, 10 hr): 1.95 Log10CFU/ml
- Log10CFU/ml (time kill) (WHO V, 16X MIC, 24 hr): 1.95 Log10CFU/ml
- Log10CFU/ml (time kill) (WHO X, 2X MIC, 0 hr): 5.77 Log10CFU/ml
- Log10CFU/ml (time kill) (WHO X, 2X MIC, 1 hr): 5.70 Log10CFU/ml
